Experimental data: patent publication US20220196676A1 (NORDIC BIOSCIENCE A S, published 2022)
Results are given in words; binding and its absence hold for the method and conditions named. Some results given as binding are weak or reduced against the parent protein; the word gives no strength.

What was measured:
[1] = target: T1, selection peptide … (C-terminal 10 amino acids of type VIII collagen α1 chain, 735-744) (human); experiment: C8-C competitive ELISA
T1 sequence (peptide): SFSGYLLYPM

[2] = target: T1, selection peptide … (C-terminal 10 amino acids of type VIII collagen α1 chain, 735-744) (human); experiment: screening of hybridoma clones against peptides
[3] = target: T1, selection peptide … (C-terminal 10 amino acids of type VIII collagen α1 chain, 735-744) (human); experiment: C8-C competitive ELISA, peptide specificity test

binding [1]: binds
binding [2]: binds
binding [3]: binds
B1: monoclonal antibody NB683-13G5 (antibody, mouse IgG1, kappa, V domains shown)
VH: EVLLQQSGPELEKPGASVKISCKASGYSLTDYNMNWVKQSDGKSLEWIGIIDPNYGDTNYNQKFKDKATLTVDKSSNTAHMQLKSLTSDDSAVYYCARSGYYGNSHYGLDYWGQGTSVTVSS
VL: QIVLTQSPAIMSASPGERVTMTCSVSSSVGYIHWYQQKSGTSPKRWISDTSKLASGVPSRFSGSGSGASYSLTIDRVEAEDAATYYCQQWSSNPPTFGGGTKLEMKR
notes: also called clone 13G5; monoclonal antibody 13G5
